Source: patent publication US5721211A, “Compositions and methods for treating small cell and nonsmall cell lung cancers” (The George Washington University, priority 1993, dated 1998)
“Also recorded” adds a separate entry of the source. Like-named read-outs stand apart in the source and are kept apart here. At least one peptide structure holds a part that was inferred or is arguable (an end, a ring closure or a residue). Ends that are not written are not given here.

Key:
VIP receptors = experiment: inhibition of specific binding of 125I-labeled VIP to lung cancer cell plasma membranes
[1] = system: VIP receptor (83 kDa glycoprotein); experiment: cross-linking of 125I-labeled VIP to its receptor in lung cancer cell plasma membranes; type: binding
[2] = system: NCI-H157 (Squamous Cell Carcinoma); experiment: soft agar colonization, NCI-H157; type: cell-based
[3] = system: NCI-H838 lung cancer cells; experiment: soft agar colonization, NCI-H838; type: cell-based; details: 10 μM; two weeks
[4] = system: NCI-H720 (lung carcinoid cancer cells); experiment: soft agar colonization, NCI-H720; type: cell-based; details: 1 μM
Protocol: (§1) The effects of THNα1 on the growth of lung cancer cell lines was studied. Single viable cells were plated in soft agar as previously described (Mahmoud, S., et al., Life Sci., 44:367 (1989)), and, after two weeks, the colonies were stained with 0.1% p-iodonitrotetrazolium violet.
(§2) The experimental conditions of Example 3 were repeated with NCI-H720 (lung carcinoid cancer cells) and NCI-N417 (SCLC lung cancer cells) cell lines. Colonies were counted as before.

[5] = system: NCI-N417 (SCLC lung cancer cells); experiment: soft agar colonization, NCI-N417; type: cell-based; details: 1 μM
Protocol: as §1, §2

[6] = system: NCI-H292 squamous cell lung carcinoma xenografts; experiment: NCI-H292 xenograft formation in nude mice; type: in vivo; details: 10 μg daily s.c.; for reduction of tumor growth: versus control; for tumor volume: mean of 3
[7] = system: lung cancer cell line NCI-H727; experiment: NCI-H727 growth in vitro (colonies); type: cell-based; details: 1 μM, mean ± S.D. of 3, p < 0.01
[8] = system: NCI-H1299 lung cancer cells; experiment: 3H-arachidonic acid (AA) release; type: cell-based; details: 1 μM; 4 determinations
Protocol: In a procedure substantially as set forth in Moody et al. (1993) supra, NCI-H1299 lung cancer cells were loaded with ^3 H-AA overnight, and after removal of free ^3 H-AA cells, were treated with increasing concentrations of THNα1(1-16)amide (Δ), THNα1 (.largecircle.) and THNα1amide (.box-solid.) (produced as described above). The mean value ± S.E. of 4 determinations is indicated; *,p<0.05; ** p<0.01.

[9] = system: SCLC and NSCLC cell lines; experiment: adenylate cyclase activity / cAMP production in lung cancer cells; type: cell-based
lung cancer cells = experiment: in vitro colonization of lung cancer cells (general statement); type: cell-based
Protocol: Candidate anti-lung cancer peptides and antibodies may be screened in vitro in a soft agar colonization assay such as that described by Mahmoud, S., et al., Life Sci., 44:367 (1989) which is herein incorporated by reference. In general, single viable lung cancer cells are plated in soft agar. After an appropriate growth period, such as 14 days, cell colonies may be stained with an appropriate cytochemical stain, and the stained cells viewed microscopically. Cytochemical stains are well known to those skilled in the art of histology.

[10] = system: tumors of both SCLC and NSCLC types of lung cancer cells; type: in vivo, nude mice
[11] = system: Squamous cell carcinoma (NCI-H157) xenografts; details: for tumor size: 10 μg s.c. adjacent to the tumor
NSCLC = details: cited from earlier work
NCI-H727 xenografts = experiment: NCI-H727 tumors in nude mice; type: in vivo; details: 10 μg daily s.c.; p<0.05
[12] = week 6, after withdrawal at week 5
[13] = postradiation therapy patients, randomized trial

Question: With “Ac-SDAAVDTSSEITTKDLKEKKEVVEEAEN [THNα1, thymosin α1]” as the substance, how does the IC50 (VIP receptors; EPLC-65H plasma membranes, 3 experiments, read-out: IC50 (concentration causing 50% inhibition) of specific binding of 125I-labeled VIP) read?
Answer: ~200 nM

Question: What about the “affinity/potency at the VIP receptor relative to VIP” value (VIP receptors; relative to unlabeled VIP) of the same substance?
Answer: only a twentieth; also recorded: about one-twentieth

Question: What about the “inhibition of binding (cross-linking) of 125I-labeled VIP to 83 kDa glycoprotein” value ([1]; 1 μM, EPLC-65H plasma membranes, 2 nM tracer) of the same substance?
Answer: inhibited the binding

Question: And the “inhibition of cross-linking of VIP to its receptor protein of about 82 kDa” value ([1]; lung cancer cells of both SCLC and NSCLC types)?
Answer: inhibits the cross-linking

Question: What about the “N/No (colony fraction)” value ([2]; 10 nM) of the same substance?
Answer: 1.00

Question: What about the “N/No (colony fraction)” value ([2]; 100 nM) of the same substance?
Answer: 0.92

Question: What about the “N/No (colony fraction)” value ([2]; 1000 nM) of the same substance?
Answer: 0.83

Question: What about the “N/No (colony fraction)” value ([2]; 10000 nM) of the same substance?
Answer: 0.69

Question: What about the “number and size of colonies” value [3] of the same substance?
Answer: dramatically reduced

Question: And the “N/No, NCI-H720” value [4]?
Answer: 0.39

Question: And the “N/No, N417” value [5]?
Answer: 0.49

Question: And the “reduction of tumor growth” value [6]?
Answer: approximately 50%

Question: And the tumor volume ([6]; week 3)?
Answer: 2 mm3

Question: What about the tumor volume ([6]; week 4) of the same substance?
Answer: 23 mm3

Question: And the tumor volume ([6]; week 5)?
Answer: 40 mm3

Question: And the tumor volume ([6]; week 6)?
Answer: 72 mm3

Question: What about the tumor volume ([6]; week 7) of the same substance?
Answer: 128 mm3

Question: And the tumor volume ([6]; week 8)?
Answer: 135 mm3

Question: What about the Colonies [7] of the same substance?
Answer: 48 ± 15

Question: And the 3H-AA release [8]?
Answer: significantly stimulate

Question: And the “effect on VIP-stimulated second messenger cAMP production” value [9]?
Answer: inhibits the stimulatory effect of VIP

Question: What about the “colony formation of lung cancer cells in vitro” value (lung cancer cells) of the same substance?
Answer: dramatically reduces colony formation

Question: What about the “lung cancer growth in vivo” value [10] of the same substance?
Answer: inhibit lung cancer growth in vivo

Question: What about the tumor size ([11]; week 3) of the same substance?
Answer: 3 mm^3

Question: What about the tumor size ([11]; week 5) of the same substance?
Answer: 187 mm^3

Question: And the “tumor size relative to control xenografts” value [11, 12]?
Answer: 25%

Question: And the tumor volume [11, 12]?
Answer: 585 mm^3

Question: What about the “reconstitution of thymic dependent immunity” value (NSCLC; patients with NSCLC) of the same substance?
Answer: accelerate the reconstitution

Question: And the T-cell function (NSCLC; [13])?
Answer: normalized T-cell function

Question: What about the “relapse-free and overall survival” value (NSCLC; [13]) of the same substance?
Answer: significant improvements

Question: And the “course of NSCLC” value (NSCLC; small group of patients)?
Answer: failed to influence

Question: Which “reduction of tumor growth” value [6] does the source give for DLKEKKEVVEEAEN [C-fragment] here?
Answer: approximately 50%

Question: What about the tumor volume ([6]; week 3) of the same substance?
Answer: 4 mm3

Question: And the tumor volume ([6]; week 4)?
Answer: 15 mm3

Question: What about the tumor volume ([6]; week 5) of the same substance?
Answer: 36 mm3

Question: And the tumor volume ([6]; week 6)?
Answer: 65 mm3

Question: And the tumor volume ([6]; week 7)?
Answer: 123 mm3

Question: And the tumor volume ([6]; week 8)?
Answer: 141 mm3

Question: For “Ac-SDAAVDTSSEITTKDLKEKKEVVEEAEN-NH2 [THNα1amide, thymosin α1 amide]”, which Colonies [7] is on record?
Answer: 28 ± 17

Question: And the Colonies ([7]; listed as TNHα1amide)?
Answer: strongly inhibit

Question: What about the 3H-AA release [8] of the same substance?
Answer: significantly stimulate

Question: And the “NCI-H727 growth in vivo” value (NCI-H727 xenografts)?
Answer: significantly inhibits

Question: What does the source list for Ac-SDAAVDTSSEITTK [N-fragment]?
Answer: reduction of tumor growth [6]: approximately 50%; tumor volume ([6]; week 3): 3 mm3; tumor volume ([6]; week 4): 27 mm3; tumor volume ([6]; week 5): 45 mm3; tumor volume ([6]; week 6): 72 mm3; tumor volume ([6]; week 7): 85 mm3; tumor volume ([6]; week 8): 162 mm3
